Reference: paper doi:10.1101/2025.11.23.689998
These are yes or no findings as the source states them, for the method shown. In cells and extracts the contact can be indirect. Here binding means that the protein was enriched with, or labelled near, the bait; the list need not be complete.

By UniProt entry, the sequences of proteins in these tests, tags left out.
UniProt Q9FIJ0: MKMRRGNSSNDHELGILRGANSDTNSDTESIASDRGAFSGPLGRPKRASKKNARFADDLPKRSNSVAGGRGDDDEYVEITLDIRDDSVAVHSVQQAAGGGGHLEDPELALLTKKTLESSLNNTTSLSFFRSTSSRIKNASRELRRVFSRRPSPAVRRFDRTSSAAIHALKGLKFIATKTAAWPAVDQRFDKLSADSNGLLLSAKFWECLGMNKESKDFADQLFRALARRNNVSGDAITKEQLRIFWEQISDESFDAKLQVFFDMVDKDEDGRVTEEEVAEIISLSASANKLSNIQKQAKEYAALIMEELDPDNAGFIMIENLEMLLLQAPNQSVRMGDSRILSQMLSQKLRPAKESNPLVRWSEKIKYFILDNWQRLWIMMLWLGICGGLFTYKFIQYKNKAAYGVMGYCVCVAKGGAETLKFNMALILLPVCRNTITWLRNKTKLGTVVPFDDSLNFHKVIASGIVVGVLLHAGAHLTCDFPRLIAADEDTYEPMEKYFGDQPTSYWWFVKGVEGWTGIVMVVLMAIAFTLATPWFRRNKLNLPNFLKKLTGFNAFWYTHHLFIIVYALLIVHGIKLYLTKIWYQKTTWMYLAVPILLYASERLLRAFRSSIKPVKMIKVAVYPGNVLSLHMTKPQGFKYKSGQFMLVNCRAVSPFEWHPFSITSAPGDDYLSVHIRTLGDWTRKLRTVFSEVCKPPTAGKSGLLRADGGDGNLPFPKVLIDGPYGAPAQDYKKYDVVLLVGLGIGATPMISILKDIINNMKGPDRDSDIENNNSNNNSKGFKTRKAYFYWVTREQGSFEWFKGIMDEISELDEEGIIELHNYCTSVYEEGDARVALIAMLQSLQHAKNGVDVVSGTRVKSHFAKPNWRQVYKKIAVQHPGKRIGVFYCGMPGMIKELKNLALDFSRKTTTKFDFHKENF

biological target: HA-tagged RBOHD (RESPIRATORY BURST OXIDASE PROTEIN D) (Arabidopsis thaliana) (UniProt Q9FIJ0); test: affinity purification with mass spectrometry

| binding | Binder |
| --- | --- |
| binds | protein involved in RBOHD recycling via clathrin mediated endocytosis (At2g40060) (protein, UniProt O04209 1-258) MSAFEDDSFVILNDDASESVPVSGSFDATDSFSAFDGSLQVEDSVDDVFAAPSSDYGAYSNGDGIFGSNGDHDGPILPPPSEMESDEGFALREWRRQNAIQLEEKEKREKELLKQIIEEADQYKEEFHKKIEVTCENNKAANREKEKLYLENQEKFYAESSKNYWKAIAELVPKEVPTIEKRRGKKEQQDPKKPTVSVIQGPKPGKPTDLTRMRQILVKLKHNPPSHLKLTSQPPSEEAAAPPKNVPETKPTEAVTAA |
| binds | protein involved in RBOHD recycling via clathrin mediated endocytosis (At5g46630) (protein, UniProt O23140 1-438) MPVAASAIYFLNLRGDVLINRTYRDDVGGNMVDAFRTHIMQTKELGNCPVRQIGGCSFVYMRISNVYIVIVVSSNANVACGFKFVVEAVALFKSYFGGAFDEDAIRNNFVLIYELLDEIMDFGYPQNLSPEILKLYITQEGVRSPFSSKPKDKPVPNATLQVTGAVGWRREGLAYKKNEVFLDIVESVNLLMSSKGNVLRCDVTGKVLMKCFLSGMPDLKLGLNDKIGLEKESEMKSRPAKSGKTIELDDVTFHQCVNLTRFNSEKTVSFVPPDGEFELMKYRITEGVNLPFRVLPTIKELGRTRMEVNVKVKSVFGAKMFALGVVVKIPVPKQTAKTNFQVTTGRAKYNPSIDCLVWKIRKFPGQTESTLSAEIELISTMGEKKSWTRPPIQMEFQVPMFTASGLRVRFLKVWEKSGYNTVEWVRYITKAGSYEIRC |
| binds | LEUCINE-RICH REPEAT (LRR) like receptor At1g53430 (receptor, UniProt C0LGG8 29-1038) QLLPEDEVQTLRTIFRKLQNQTVNIERTSCSDQNWNFVVESASNSPTSNITCDCTFNASSVCRVTNIQLKSFSLPGIFPPEFGNLTRLREIDLSRNFLNGTIPTTLSQIPLEILSVIGNRLSGPFPPQLGDITTLTDVNLETNLFTGPLPRNLGNLRSLKELLLSANNFTGQIPESLSNLKNLTEFRIDGNSLSGKIPDFIGNWTLLERLDLQGTSMEGPIPPSISNLTNLTELRITDLRGQAAFSFPDLRNLMKMKRLVLRNCLIRGPIPEYIGSMSELKTLDLSSNMLTGVIPDTFRNLDAFNFMFLNNNSLTGPVPQFIINSKENLDLSDNNFTQPPTLSCNQLDVNLISSYPSVTDNSVQWCLREGLPCPEDAKQSSLFINCGGSRLKIGKDTYTDDLNSRGQSTFSSVSERWGYSSSGVWLGKEDAGYLATDRFNLINGSTPEYYKTARLSPQSLKYYGLCLRRGSYKLQLHFAEIMFSNDQTFNSLGRRIFDIYVQGNLLERDFNIAERAGGVGKPFIRQIDGVQVNGSTLEIHLQWTGKGTNVIPTRGVYGPLISAITITPNFKVDTGKPLSNGAVAGIVIAACAVFGLLVLVILRLTGYLGGKEVDENEELRGLDLQTGSFTLKQIKRATNNFDPENKIGEGGFGPVYKGVLADGMTIAVKQLSSKSKQGNREFVTEIGMISALQHPNLVKLYGCCIEGKELLLVYEYLENNSLARALFGTEKQRLHLDWSTRNKICIGIAKGLAYLHEESRLKIVHRDIKATNVLLDLSLNAKISDFGLAKLNDDENTHISTRIAGTIGYMAPEYAMRGYLTDKADVYSFGVVCLEIVSGKSNTNYRPKEEFVYLLDWAYVLQEQGSLLELVDPDLGTSFSKKEAMRMLNIALLCTNPSPTLRPPMSSVVSMLEGKIKVQPPLVKREADPSGSAAMRFKALELLSQDSESQVSTYARNREQDISSSSMDGPWVDSSFSEPGKDVSLQQQEEGRSSSSSRKLLDDLTDVKIE |
| binds | WALL-ASSOCIATED RECEPTOR KINASE 2 (receptor, UniProt Q9LMP1 24-732) QPRKECQTRCGNVAVEYPFGTSPGCYYPGDESFNLTCNEQEKLFFGNMPVINMSLSGQLRVRLVRSRVCYDSQGKQTDYIAQRTTLGNFTLSELNRFTVVGCNSYAFLRTSGVEKYSTGCISICDSATTKNGSCSGEGCCQIPVPRGYSFVRVKPHSFHNHPTVHLFNPCTYAFLVEDGMFDFHALEDLNNLRNVTTFPVVLDWSIGDKTCKQVEYRGVCGGNSTCFDSTGGTGYNCKCLEGFEGNPYLPNGCQDINECISSRHNCSEHSTCENTKGSFNCNCPSGYRKDSLNSCTRKVRPEYFRWTQIFLGTTIGFSVIMLGISCLQQKIKHRKNTELRQKFFEQNGGGMLIQRVSGAGPSNVDVKIFTEKGMKEATNGYHESRILGQGGQGTVYKGILPDNSIVAIKKARLGNRSQVEQFINEVLVLSQINHRNVVKVLGCCLETEVPLLVYEFINSGTLFDHLHGSLYDSSLTWEHRLRIATEVAGSLAYLHSSASIPIIHRDIKTANILLDKNLTAKVADFGASRLIPMDKEQLTTIVQGTLGYLDPEYYNTGLLNEKSDVYSFGVVLMELLSGQKALCFERPHCPKNLVSCFASATKNNRFHEIIDGQVMNEDNQREIQEAARIAAECTRLMGEERPRMKEVAAELEALRVKTTKYKWSDQYRETGEIEHLLGVQILSAQGETSSSIGYDSIRNVTTLDIEAGR |
| binds | SERINE/THREONINE-PROTEIN PHOSPHATASE 2A (At3g25800) (protein, UniProt Q38950 1-587) MSMIDEPLYPIAVLIDELKNDDIQLRLNSIRRLSTIARALGEERTRKELIPFLSENNDDDDEVLLAMAEELGVFIPYVGGVEYAHVLLPPLETLSTVEETCVREKAVESLCRVGSQMRESDLVDHFISLVKRLAAGEWFTARVSACGVFHIAYPSAPDMLKTELRSLYTQLCQDDMPMVRRAAATNLGKFAATVESAHLKTDVMSMFEDLTQDDQDSVRLLAVEGCAALGKLLEPQDCVQHILPVIVNFSQDKSWRVRYMVANQLYELCEAVGPEPTRTELVPAYVRLLRDNEAEVRIAAAGKVTKFCRILNPEIAIQHILPCVKELSSDSSQHVRSALASVIMGMAPVLGKDATIEHLLPIFLSLLKDEFPDVRLNIISKLDQVNQVIGIDLLSQSLLPAIVELAEDRHWRVRLAIIEYIPLLASQLGVGFFDDKLGALCMQWLQDKVHSIRDAAANNLKRLAEEFGPEWAMQHIVPQVLEMVNNPHYLYRMTILRAVSLLAPVMGSEITCSKLLPVVMTASKDRVPNIKFNVAKVLQSLIPIVDQSVVEKTIRPGLVELSEDPDVDVRFFANQALQSIDNVMMSS |
| binds | CALCIUM-BINDING PROTEIN CML13 (protein, UniProt Q94AZ4 1-148) MGKDGLSDDQVSSMKEAFMLFDTDGDGKIAPSELGILMRSLGGNPTQAQLKSIIASENLSSPFDFNRFLDLMAKHLKTEPFDRQLRDAFKVLDKEGTGFVAVADLRHILTSIGEKLEPNEFDEWIKEVDVGSDGKIRYEDFIARMVAK |
| binds | protein involved in RBOHD recycling via clathrin mediated endocytosis (At2g25430) (protein, UniProt Q8LF20 1-653) MAPSIRKAIGAVKDQTSIGIAKVASNMAPDLEVAIVKATSHDDDPASEKYIREILNLTSLSRGYILACVTSVSRRLSKTRDWVVALKALMLVHRLLNEGDPIFQEEILYSTRRGTRMLNMSDFRDEAHSSSWDHSAFVRTYAGYLDQRLELALFERKSGVSVNSGGNSSHHSNNDDRYGRGRDDFRSPPPRSYDYENGGGGGSDFRGDNNGYGGVPKRSRSYGDMTEMGGGGGGGGRDEKKVVTPLREMTPERIFGKMGHLQRLLDRFLSLRPTGLAKNSRMILIALYPVVRESFKLYADICEVLAVLLDKFFDMEYSDCVKAFDAYASAAKQIDELIAFYNWCKETGVARSSEYPEVQRITSKLLETLEEFVRDRAKRGKSPERKEIEAPPPVVEEEEPEPDMNEIKALPPPENYTPPPPPEPEPQPEKPQFTEDLVNLREDEVTADDQGNKFALALFAGPPGNNGKWEAFSSNGVTSAWQNPAAEPGKADWELALVETTSNLEKQTAALGGGFDNLLLNGMYDQGMVRQHVSTSQLTGGSASSVALPLPGKTNNQVLALPAPDGTVEKVNQDPFAASLTIPPPSYVQMAEMEKKQYLLSQEQQLWQQYQRDGMRGQASLAKMNTGPVPAYGMPPVNGMGPPPTGYYYNNPY |
| binds | LEUCINE-RICH REPEAT (LRR) like receptor At3g14840 (receptor, UniProt C0LGN2 27-1020) ATLPKEEVDALQSVATALKKSNWNFSVDPCDETLSEGGWRNPNAAKGFEDAVTCNCSSVICHVTNIVLKAQDLQGSLPTDLSGLPFLQELDLTRNYLNGSIPPEWGASSLLNISLLGNRISGSIPKELGNLTTLSGLVLEYNQLSGKIPPELGNLPNLKRLLLSSNNLSGEIPSTFAKLTTLTDLRISDNQFTGAIPDFIQNWKGLEKLVIQASGLVGPIPSAIGLLGTLTDLRITDLSGPESPFPPLRNMTSMKYLILRNCNLTGDLPAYLGQNRKLKNLDLSFNKLSGPIPATYSGLSDVDFIYFTSNMLNGQVPSWMVDQGDTIDITYNNFSKDKTEECQQKSVNTFSSTSPLVANNSSNVSCLSKYTCPKTFYGLHINCGGNEITSNETKYDADTWDTPGYYDSKNGWVSSNTGNFLDDDRTNNGKSKWSNSSELKITNSSIDFRLYTQARLSAISLTYQALCLGKGNYTVNLHFAEIMFNEKNMYSNLGRRYFDIYVQGKREVKDFNIVDEAKGVGKAVVKKFPVMVTNGKLEIRLQWAGKGTQAIPVRGVYGPLISAVSVDPDFIPPKEPGTGTGGGSSVGTVVGSVIASTVFLVLLIGGILWWRGCLRPKSQMEKDFKNLDFQISSFSLRQIKVATDNFDPANKIGEGGFGPVHKGIMTDGTVIAVKQLSAKSKQGNREFLNEIAMISALQHPHLVKLYGCCVEGDQLLLVYEYLENNSLARALFGPQETQIPLNWPMRQKICVGIARGLAYLHEESRLKIVHRDIKATNVLLDKELNPKISDFGLAKLDEEENTHISTRVAGTYGYMAPEYAMRGHLTDKADVYSFGVVALEIVHGKSNTSSRSKADTFYLLDWVHVLREQNTLLEVVDPRLGTDYNKQEALMMIQIGMLCTSPAPGDRPSMSTVVSMLEGHSTVNVEKLLEASVNNEKDEESVRAMKRHYATIGEEEITNTTTTDGPFTSSSTSTANANDLYPVKLDSAYWNTRT |
| binds | WALL-ASSOCIATED RECEPTOR KINASE 8 (receptor, UniProt Q9SA25 24-720) STFPLALRNCSDHCGNVSVPYPFGIGKGCYKNKWFEIVCKSSSDQQPILLLPRIRRAVTSFNLGDPFSISVYNKFYIQSPLKHSGCPNRDGYSSSSLNLKGSPFFISENNKFTAVGCNNKAFMNVTGLQIVGCETTCGNEIRSYKGANTSCVGYKCCQMTIPPLLQLQVFDATVEKLEPNKQGCQVAFLTQFTLSGSLFTPPELMEYSEYTTIELEWRLDLSYMTSKRVLCKGNTFFEDSYQCSCHNGYEGNPYIPGGCQDIDECRDPHLNKCGKRKCVNVLGSYRCEKTWPAILSGTLSSGLLLLIFGMWLLCKANRKRKVAKQKRKFFQRNGGLLLQQQTSFLHGSVNRTKVFSSNDLENATDRFNASRILGQGGQGTVYKGMLEDGMIVAVKKSKALKEENLEEFINEIILLSQINHRNVVKILGCCLETEVPILVYEFIPNRNLFDHLHNPSEDFPMSWEVRLCIACEVADALSYLHSAVSIPIYHRDVKSTNILLDEKHRAKVSDFGISRSVAIDDTHLTTIVQGTIGYVDPEYLQSNHFTGKSDVYSFGVLLIELLTGEKPVSLLRRQEVRMLGAYFLEAMRNDRLHEILDARIKEECDREEVLAVAKLARRCLSLNSEHRPTMRDVFIELDRMQSKRKGTQSQAQNGEEHAHIQIAMPESMSLSYSSPNIVVENSSFSLDTKPLMPHKTQ |
